Laboratory results: US20260062443A1 (ALEXION PHARMACEUTICALS, INC., priority 2022, published 2026)
The match of structure and compound is tentative.

Chains of the proteins cited; added tags and fusions are not shown. Residues count along the entry.
UniProt P09871, 438-688 limits assumed: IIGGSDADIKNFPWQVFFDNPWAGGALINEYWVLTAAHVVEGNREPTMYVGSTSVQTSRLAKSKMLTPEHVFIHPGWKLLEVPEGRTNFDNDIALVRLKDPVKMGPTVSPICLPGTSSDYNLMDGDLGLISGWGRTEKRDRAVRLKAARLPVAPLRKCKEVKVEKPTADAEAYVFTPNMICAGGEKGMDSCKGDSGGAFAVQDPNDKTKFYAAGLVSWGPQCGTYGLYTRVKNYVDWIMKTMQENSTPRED
UniProt P09871, 16-437 partner limits assumed: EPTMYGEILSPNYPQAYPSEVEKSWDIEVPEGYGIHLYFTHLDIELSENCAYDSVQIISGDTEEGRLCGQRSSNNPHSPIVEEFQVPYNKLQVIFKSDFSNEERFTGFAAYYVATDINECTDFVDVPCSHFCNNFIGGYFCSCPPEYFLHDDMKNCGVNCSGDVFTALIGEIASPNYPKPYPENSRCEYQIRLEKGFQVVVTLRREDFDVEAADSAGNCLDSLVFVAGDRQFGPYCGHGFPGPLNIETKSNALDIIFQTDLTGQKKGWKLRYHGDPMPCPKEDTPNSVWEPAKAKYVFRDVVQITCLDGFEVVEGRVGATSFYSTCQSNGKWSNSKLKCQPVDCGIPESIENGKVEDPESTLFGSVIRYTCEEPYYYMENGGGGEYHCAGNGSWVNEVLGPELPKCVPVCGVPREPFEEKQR

Target: Human complement C1s enzyme (Homo sapiens, UniProt P09871)
Assay: Human C1s enzyme assay
Format: biochemical
Conditions: read-out: IC50 (Stars), C1s Inhibiting Activity; human complement C1s enzyme 1.16 nM, substrate Z-L-Lys-SBzl 100 μM, 5 min preincubation
Method: Other standard complement assays are also available.
Human complement C1s enzyme (purified from human serum, Complement Technology, Inc.) at 1.16 nM final concentration was incubated with test compound at various concentrations for 5 min at room temperature in 50 mM Tris, 1 M NaCl, pH 7.5. A synthetic substrate Z-L-Lys-SBzl and DTNB (Ellman's reagent) were added to final concentrations of 100 μM each. Absorbance at 405 nm (A405) was recorded at 30 second intervals for 30 min using a microplate spectrophotometer. IC50 values were calculated by nonlinear regression of complement C1 s reaction rates as a function of test compound concentration.
ND indicates a compound for which the IC50 value is not determined.

Row | Compound | IC50 [nM]
1 | Cc1ccc(Oc2ccc(C(=O)NCC(=O)N3C[C@H](OC(F)F)C[C@H]3C(=O)N[C@H](C)c3cc4cnccc4[nH]3)cc2)cc1 | < 100
2 | C[C@@H](NC(=O)[C@@H]1C[C@@H](OC(F)F)CN1C(=O)CNC(=O)c1ccc(Oc2ccc(F)cc2)cc1)c1cc2cnccc2[nH]1 | < 100
3 | C[C@@H](NC(=O)[C@@H]1C[C@@H](OC(F)F)CN1C(=O)CNC(=O)c1ccc2c(c1)Oc1ccccc1S2)c1cc2cnccc2[nH]1 | < 100
4 | C[C@@H](NC(=O)[C@@H]1C[C@]2(C)C[C@@H]2N1C(=O)CNC(=O)c1ccc(Oc2ccc(F)cc2)cc1)c1cc2cnccc2[nH]1 | < 100
5 | O=C(NCC(=O)N1C[C@H](OC(F)F)C[C@H]1C(=O)NCc1cc2cnccc2s1)c1ccc2c(c1)Oc1ccccc1S2 [Compound 141, (2S,4R)-4-(difluoromethoxy)-1-((phenoxathiine-3-carbonyl)glycyl)-N-(thieno[3,2-c]pyridin-2-ylmethyl)pyrrolidine-2-carboxamide] | < 100
6 | C[C@@H](NC(=O)[C@@H]1CC2(CN1C(=O)CNC(=O)c1ccc(Oc3ccc(F)cc3)cc1)OCCO2)c1cc2cnccc2[nH]1 | 100 to 1000
7 | C[C@@H](NC(=O)[C@@H]1C[C@@H](OC(F)F)CN1C(=O)CNC(=O)c1ccc(Oc2ccccc2)cn1)c1cc2cnccc2[nH]1 | 100 to 1000
8 | C[C@@]12C[C@@H]1N(C(=O)CNC(=O)c1ccc(Oc3ccc(F)cc3)cc1)[C@H](C(=O)N[C@H](CO)c1cc3cnccc3[nH]1)C2 | 100 to 1000
9 | C[C@@H](NC(=O)[C@@H]1C[C@]2(C)C[C@@H]2N1C(=O)CNC(=O)c1cccc(Oc2ccc(F)cc2)c1)c1cc2cnccc2[nH]1 | < 100
